Data as given in the supplement of paper PMC8256030.
“And” between values parts separate entries of the source, which are not always exact repeats. Equal entries are not always repeated. This is one part of the list. This data set is noisy: repeats of one test often differ as much as different tests do.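 HEK293T cells were given each compound shortly before transfection with a reporter in which red mCherry is followed by the SARS-CoV-2 frameshift element and then GFP in the −1 frame, so GFP appears only after frameshifting.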

Tested on: HEK293T
Experiment: percent viability (nuclei count) relative to control; higher = more viable cells
Conditions: 10 µM; 24 h

SMILES | percent viability
Nc1ccn(C[C@@H](CO)OCP(=O)(O)O)c(=O)n1 [Vistide] | 206%
Nc1c(-c2cccc(C(F)(F)F)c2)nsc1C(=O)O [amflutizole] | 250%
CCN(CC)C(=O)c1cccc(C)c1 [diethyltoluamide] | 169%
Clc1ccc(C(Cn2ccnc2)OCc2csc3c(Cl)cccc23)c(Cl)c1 (centres undefined) [sertaconazole] | 328%
C[C@](N)(Cc1ccc(O)c(O)c1)C(=O)O | 214%
Cc1nc(NS(=O)(=O)c2ccc(N)cc2)oc1C [sulfamoxole] | 271%
CCCCC[C@](C)(O)/C=C/[C@@H]1[C@@H](C/C=C\CCCC(=O)O)[C@@H](O)C[C@H]1O [Carboprost Tromethamine] | 190%
CC[N+](CC)(CC)CCOc1cccc(OCC[N+](CC)(CC)CC)c1OCC[N+](CC)(CC)CC [gallamine triethiodide] | 137% and 157%
CC(=O)CC(c1ccc([N+](=O)[O-])cc1)c1c(O)c2ccccc2oc1=O (centres undefined) | 136%
CCOC(=O)NNC(C)c1ccccc1 (centres undefined) [carbenzide] | 121%
CNC(=S)NCCSCc1[nH]cnc1C [metiamide] | 212%
CCCCCCCCCCOc1cc2c(=O)c(C(=O)OCC)c[nH]c2cc1OCC | 72.3%
CN1CC(O)c2cc(N=NC(N)=O)c(O)cc21 (centres undefined) [carbazochrome] | 175%
COc1cnc(NS(=O)(=O)c2ccc(N)cc2)nc1 [sulfametoxydiazine] | 288%
C=C(c1ccc(C(=O)O)cc1)c1cc2c(cc1C)C(C)(C)CCC2(C)C [bexarotene] | 318%
Clc1ccc(Nc2nnc(Cc3ccncc3)c3ccccc23)cc1 [vatalanib] | 240%
Nc1ccc(S(=O)(=O)Nc2ncccn2)cc1 [sulfadiazine] | 171% and 169%
C[C@@H]1[C@H](O)[C@@H](C)/C=C/C=C/C=C/C=C/C=C/C=C/C=C/[C@H](O[C@@H]2O[C@H](C)[C@@H](O)[C@H](N)[C@@H]2O)C[C@@H]2O[C@](O)(C[C@@H](O)C[C@@H](O)[C@H](O)CC[C@@H](O)C[C@@H](O)CC(=O)O[C@H]1C)C[C@H](O)[C@H]2C(=O)O | 234%
NS(=O)(=O)c1ccc(NCS(=O)(=O)O)cc1 [mesulfamide] | 165%
Cn1c(=O)c2c(ncn2CCCNCC(O)c2cc(O)cc(O)c2)n(C)c1=O (centres undefined) [reproterol] | 56.1%

Sorted by length of the SMILES (smallest number first): 9 of the compounds above.
SMILES | percent viability
CNC(=S)NCCSCc1[nH]cnc1C [metiamide] | 212%
Nc1ccc(S(=O)(=O)Nc2ncccn2)cc1 [sulfadiazine] | 171% and 169%
C[C@](N)(Cc1ccc(O)c(O)c1)C(=O)O | 214%
NS(=O)(=O)c1ccc(NCS(=O)(=O)O)cc1 [mesulfamide] | 165%
Clc1ccc(Nc2nnc(Cc3ccncc3)c3ccccc23)cc1 [vatalanib] | 240%
CCCCCCCCCCOc1cc2c(=O)c(C(=O)OCC)c[nH]c2cc1OCC | 72.3%
Cn1c(=O)c2c(ncn2CCCNCC(O)c2cc(O)cc(O)c2)n(C)c1=O (centres undefined) [reproterol] | 56.1%
CC(=O)CC(c1ccc([N+](=O)[O-])cc1)c1c(O)c2ccccc2oc1=O (centres undefined) | 136%
C[C@@H]1[C@H](O)[C@@H](C)/C=C/C=C/C=C/C=C/C=C/C=C/C=C/[C@H](O[C@@H]2O[C@H](C)[C@@H](O)[C@H](N)[C@@H]2O)C[C@@H]2O[C@](O)(C[C@@H](O)C[C@@H](O)[C@H](O)CC[C@@H](O)C[C@@H](O)CC(=O)O[C@H]1C)C[C@H](O)[C@H]2C(=O)O | 234%

Carrying on:

SMILES | percent viability
Nc1nc2c(ncn2COC(CO)CO)c(=O)[nH]1 [Ganciclovir] | 265%
CCN1CCN(c2cc3c(cc2F)c(=O)c(C(=O)O)cn3C2CC2)CC1 [enrofloxacin] | 144% and 152%
C[C@@H]1C[C@H]2[C@@H]3C[C@H](F)C4=CC(=O)C(Cl)=C[C@]4(C)[C@@]3(F)[C@@H](O)C[C@]2(C)[C@@]1(O)C(=O)CO [halometasone] | 153%
NC(=O)C1(N2CCCCC2)CCN(CCCC(=O)c2ccc(F)cc2)CC1 [pipamperone] | 212%
COc1cc2c(cc1OC)[C@@H](Cc1cc(OC)c(OC)c(OC)c1)[N+](C)(CCCOC(=O)CC/C=C/CCC(=O)OCCC[N+]1(C)CCc3cc(OC)c(OC)cc3[C@H]1Cc1cc(OC)c(OC)c(OC)c1)CC2 (some centres undefined) [Mivacron] | 241%
C/C=C/C/C=C/CCC(=O)[C@H]1O[C@H]1C(N)=O [Helicocerin] | 323%
NC(CSSCC(N)C(=O)O)C(=O)O (centres undefined) | 46.7%
COC(=O)Nc1nc2cc(C(=O)c3ccccc3)ccc2[nH]1 [Mebendazol] | 16.3%
Cc1cccc(C(=O)O)c1O | 229%
N=C(N)NCc1cccc(I)c1 [Iobenguane] | 274%
CCN(CC)C(=O)/C(C#N)=C/c1cc(O)c(O)c([N+](=O)[O-])c1 [entacapone] | 141% and 295% and 205%
CC1(S(=O)(=O)O)CC(=O)c2ccccc2C1=O (centres undefined) [menadione sodium bisulfite] | 80%
CC(C)[C@H]1CC[C@H](C)C[C@@H]1O [racementhol] | 148%
CC(=O)N[C@H](Cc1ccc2ccccc2c1)C(=O)N[C@H](Cc1ccc(Cl)cc1)C(=O)N[C@H](Cc1cccnc1)C(=O)N[C@@H](CO)C(=O)N(C)[C@@H](Cc1ccc(O)cc1)C(=O)N[C@H](CC(N)=O)C(=O)N[C@@H](CC(C)C)C(=O)N[C@@H](CCCCNC(C)C)C(=O)N1CCC[C@H]1C(=O)N[C@H](C)C(N)=O [abarelix] | 124%
CN(CCCN1c2ccccc2CCc2ccccc21)CC(=O)c1ccc(Cl)cc1 [lofepramine] | 284%
CC(=O)N=c1sc(S(N)(=O)=O)nn1C | 321%
CCCn1c(=O)c(CCCOC(=O)NC)nc2ccccc21 [bamaquimast] | 190%
CO[C@@H]1[C@@H](OC(=O)c2ccc(C)[nH]2)[C@@H](O)[C@@H](Oc2ccc3c(O)c(NC(=O)c4c[nH]c(C(=O)Nc5c(O)c6ccc(O[C@H]7OC(C)(C)[C@H](OC)[C@@H](OC(=O)c8ccc(C)[nH]8)[C@H]7O)c(C)c6oc5=O)c4C)c(=O)oc3c2C)OC1(C)C [coumamycin] | 11.1%
O=C(O)c1ccccc1Nc1cccc(C(F)(F)F)c1 [flufenamic acid] | 178% and 267%
